Patent US9278997B2 (NOVARTIS AG, priority 2011, dated 2016)
“And” between values parts separate entries of the source, which are not always exact repeats. Equal entries are not always repeated.

Experiment: general procedure: hybrid (solid and solution phase) peptide synthesis; HATU/DMAP (macrolactamisation)
[1] = late stage modification step, HPLC

For “(S)-2-acetamido-N^1-((1S,2S,5S,8S,11R,12S,15S,18S,21R)-2-benzyl-21-hydroxy-5-(4-hydroxybenzyl)-15-isobutyl-8-isopropyl-4,11-dimethyl-3,6,9,13,16,22-hexaoxo-10-oxa-1,4,7,14,17-pentaazabicyclo[16.3.1]docosan-12-yl)pentanediamide”, the step yield (late stage modification step) was 81% and the “final purity (method not given)” value (late stage modification step, HPLC, run 1) was 97% (A) and 90% (A).
In the case of “(S)—N^1-((2S,5S,8S,11R,12S,15S,18S,21R)-2,8-di-(S)-sec-butyl-21-hydroxy-5-(4-hydroxybenzyl)-15-isobutyl-4,11-dimethyl-3,6,9,13,16,22-hexaoxo-10-oxa-1,4,7,14,17-pentaazabicyclo[16.3.1]docosan-12-yl)-2-isobutyramidopentanediamide”, the step yield (late stage modification step) is reported as 87.8%, the “crude HPLC purity” value [1] is reported as “ca. 95.6 area %” and the “final purity (method not given)” value [1] is reported as 96.8 area %. For the same substance, the step yield (late stage modification step, run 1) was 59.1% and the step yield (late stage modification step, run 2) was 64%.
For “(S)—N^1-((3S,6S,9S,12S,15S,18S,19R)-6-(4-(tert-butoxy)benzyl)-3,9-di((S)-sec-butyl)-12-(3-hydroxypropyl)-15-isobutyl-7,19-dimethyl-2,5,8,11,14,17-hexaoxo-1-oxa-4,7,10,13,16-pentaazacyclononadecan-18-yl)-2-isobutyramido-N^5-tritylpentanediamide”, the step yield (late stage modification step) was 82% and 94.5% and the “final HPLC purity” value [1] was 97 a %.
With “Isobutyryl-Gln(Trt)-Thr(Ile-Tyr(tBu)Me-Ile-Synthon 1-H)-Leu-OH” the “final purity (method not given)” value (whole synthesis, HPLC, run 1) was 98.8%, the “final purity (method not given)” value (whole synthesis, HPLC, run 2) was 99.3% a and the isolated yield (whole synthesis, for the last two steps) was 48%.
